From doi:10.1101/2024.11.13.623393 come the findings set out here.

These are yes or no findings as the source states them, for the method shown. A result given as binding can be weak or reduced; the word gives no strength.

The assay deals with microtubule polymers (alpha/beta tubulin). The assay can be described thus: co-sedimentation.

B1: Smc5 hinge domain (residues 215 to 885) (domain or fragment, UniProt Q08204 215-885)
chain: LRELQGNEQSLQKDLDFKKAKIVHLRQESDKLRKSVESLRDFQNKKGEIELHSQLLPYVKVKDHKEKLNIYKEEYERAKANLRAILKDKKPFANTKKTLENQVEELTEKCSLKTDEFLKAKEKINEIFEKLNTIRDEVIKKKNQNEYYRGRTKKLQATIISTKEDFLRSQEILAQTHLPEKSVFEDIDIKRKEIINKEGEIRDLISEIDAKANAINHEMRSIQRQAESKTKSLTTTDKIGILNQDQDLKEVRDAVLMVREHPEMKDKILEPPIMTVSAINAQFAAYLAQCVDYNTSKALTVVDSDSYKLFANPILDKFKVNLRELSSADTTPPVPAETVRDLGFEGYLSDFITGDKRVMKMLCQTSKIHTIPVSRRELTPAQIKKLITPRPNGKILFKRIIHGNRLVDIKQSAYGSKQVFPTDVSIKQTNFYQGSIMSNEQKIRIENEIINLKNEYNDRKSTLDALSNQKSGYRHELSELASKNDDINREAHQLNEIRKKYTMRKSTIETLREKLDQLKREARKDVSQKIKDIDDQIQQLLLKQRHLLSKMASSMKSLKNCQKELISTQILQFEAQNMDVSMNDVIGFFNEREADLKSQYEDKKKFVKEMRDTPEFQSWMREIRSYDQDTKEKLNKVAEKYEEEGNFNLSFVQDVLDKLESEIAMVNHDES
With B1, the binding entry was “binds”.
